Source: the supplement of paper PMC10849652
The other results are listed elsewhere or left out.

Protein sequences, listed by entry. Tags and fused reporters are not part of them. Lines headed by an entry give the natural chain unless they say otherwise; changes in a name come on top.
UniProt Q9NS69: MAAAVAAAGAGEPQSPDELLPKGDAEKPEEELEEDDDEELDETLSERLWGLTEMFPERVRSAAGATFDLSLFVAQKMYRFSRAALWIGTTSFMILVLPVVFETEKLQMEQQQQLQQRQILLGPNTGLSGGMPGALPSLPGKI
UniProt Q9H3N1: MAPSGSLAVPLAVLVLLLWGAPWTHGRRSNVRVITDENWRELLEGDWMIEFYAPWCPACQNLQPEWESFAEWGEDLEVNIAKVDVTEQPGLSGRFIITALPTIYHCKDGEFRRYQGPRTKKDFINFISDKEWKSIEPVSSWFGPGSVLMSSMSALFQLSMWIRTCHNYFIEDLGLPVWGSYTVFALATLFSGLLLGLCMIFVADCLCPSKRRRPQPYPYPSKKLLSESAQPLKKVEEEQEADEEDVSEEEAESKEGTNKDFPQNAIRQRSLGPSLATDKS
UniProt Q9P0U1: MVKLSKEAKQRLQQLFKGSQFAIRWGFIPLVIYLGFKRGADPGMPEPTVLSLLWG
UniProt P63313: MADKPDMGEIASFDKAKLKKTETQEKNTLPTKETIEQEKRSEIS
UniProt Q8N4H5: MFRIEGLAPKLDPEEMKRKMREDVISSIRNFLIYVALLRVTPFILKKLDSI
UniProt Q9NVH6: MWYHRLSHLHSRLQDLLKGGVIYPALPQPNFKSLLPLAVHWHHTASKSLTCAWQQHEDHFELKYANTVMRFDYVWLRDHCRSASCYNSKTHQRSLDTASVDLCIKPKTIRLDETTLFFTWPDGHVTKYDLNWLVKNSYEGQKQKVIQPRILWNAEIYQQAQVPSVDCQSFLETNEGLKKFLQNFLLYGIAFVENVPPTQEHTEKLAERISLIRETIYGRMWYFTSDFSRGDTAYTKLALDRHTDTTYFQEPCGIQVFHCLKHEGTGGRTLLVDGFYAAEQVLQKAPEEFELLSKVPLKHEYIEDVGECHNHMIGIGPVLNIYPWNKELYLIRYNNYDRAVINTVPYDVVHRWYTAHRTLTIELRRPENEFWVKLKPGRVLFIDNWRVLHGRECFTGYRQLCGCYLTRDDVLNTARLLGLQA
UniProt Q969M1: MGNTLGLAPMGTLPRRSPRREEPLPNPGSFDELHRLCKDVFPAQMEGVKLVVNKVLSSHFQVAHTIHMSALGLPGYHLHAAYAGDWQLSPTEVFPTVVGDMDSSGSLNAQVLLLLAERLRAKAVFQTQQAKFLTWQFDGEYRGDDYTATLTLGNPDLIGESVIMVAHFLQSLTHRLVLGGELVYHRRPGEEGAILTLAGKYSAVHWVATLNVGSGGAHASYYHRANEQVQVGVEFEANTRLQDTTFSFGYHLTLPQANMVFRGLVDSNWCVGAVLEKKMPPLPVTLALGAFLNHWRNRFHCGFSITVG
UniProt P11388: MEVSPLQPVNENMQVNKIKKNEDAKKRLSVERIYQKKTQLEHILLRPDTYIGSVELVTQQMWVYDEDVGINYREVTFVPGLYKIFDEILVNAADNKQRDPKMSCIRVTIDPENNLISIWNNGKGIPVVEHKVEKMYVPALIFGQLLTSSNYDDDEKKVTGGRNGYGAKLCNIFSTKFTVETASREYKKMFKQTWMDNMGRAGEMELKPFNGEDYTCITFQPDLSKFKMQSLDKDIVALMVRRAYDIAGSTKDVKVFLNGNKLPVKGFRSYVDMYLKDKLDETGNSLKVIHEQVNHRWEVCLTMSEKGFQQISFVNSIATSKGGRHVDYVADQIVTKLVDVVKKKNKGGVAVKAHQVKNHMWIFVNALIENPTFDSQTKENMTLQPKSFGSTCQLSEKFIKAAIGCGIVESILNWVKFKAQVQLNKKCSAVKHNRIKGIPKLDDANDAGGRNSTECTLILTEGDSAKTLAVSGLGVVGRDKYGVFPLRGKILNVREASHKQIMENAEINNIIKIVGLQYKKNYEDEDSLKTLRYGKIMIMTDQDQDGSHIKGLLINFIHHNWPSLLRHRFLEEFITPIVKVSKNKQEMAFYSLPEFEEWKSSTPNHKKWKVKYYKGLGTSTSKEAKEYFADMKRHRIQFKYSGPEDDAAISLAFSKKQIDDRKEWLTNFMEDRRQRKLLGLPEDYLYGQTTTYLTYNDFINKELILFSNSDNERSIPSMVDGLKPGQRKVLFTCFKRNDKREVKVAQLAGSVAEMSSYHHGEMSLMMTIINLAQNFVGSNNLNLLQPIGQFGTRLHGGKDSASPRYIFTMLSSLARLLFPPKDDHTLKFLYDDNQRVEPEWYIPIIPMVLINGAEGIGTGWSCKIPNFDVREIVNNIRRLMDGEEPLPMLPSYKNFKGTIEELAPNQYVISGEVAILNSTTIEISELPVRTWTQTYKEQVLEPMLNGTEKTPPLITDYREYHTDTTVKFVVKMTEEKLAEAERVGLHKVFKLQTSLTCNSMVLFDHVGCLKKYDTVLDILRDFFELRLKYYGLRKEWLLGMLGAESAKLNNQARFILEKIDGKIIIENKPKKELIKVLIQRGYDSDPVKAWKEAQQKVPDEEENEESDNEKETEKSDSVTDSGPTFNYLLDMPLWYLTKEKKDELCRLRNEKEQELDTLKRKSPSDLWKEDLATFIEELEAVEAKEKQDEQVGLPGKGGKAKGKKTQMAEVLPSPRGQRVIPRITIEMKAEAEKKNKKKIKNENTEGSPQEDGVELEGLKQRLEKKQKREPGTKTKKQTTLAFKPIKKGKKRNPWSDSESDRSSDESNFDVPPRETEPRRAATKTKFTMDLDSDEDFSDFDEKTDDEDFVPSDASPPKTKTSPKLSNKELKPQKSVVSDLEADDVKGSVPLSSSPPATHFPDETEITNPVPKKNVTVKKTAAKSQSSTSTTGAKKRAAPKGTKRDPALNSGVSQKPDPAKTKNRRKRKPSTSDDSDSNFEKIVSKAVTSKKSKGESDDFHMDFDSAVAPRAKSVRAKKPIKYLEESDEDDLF
UniProt Q03169: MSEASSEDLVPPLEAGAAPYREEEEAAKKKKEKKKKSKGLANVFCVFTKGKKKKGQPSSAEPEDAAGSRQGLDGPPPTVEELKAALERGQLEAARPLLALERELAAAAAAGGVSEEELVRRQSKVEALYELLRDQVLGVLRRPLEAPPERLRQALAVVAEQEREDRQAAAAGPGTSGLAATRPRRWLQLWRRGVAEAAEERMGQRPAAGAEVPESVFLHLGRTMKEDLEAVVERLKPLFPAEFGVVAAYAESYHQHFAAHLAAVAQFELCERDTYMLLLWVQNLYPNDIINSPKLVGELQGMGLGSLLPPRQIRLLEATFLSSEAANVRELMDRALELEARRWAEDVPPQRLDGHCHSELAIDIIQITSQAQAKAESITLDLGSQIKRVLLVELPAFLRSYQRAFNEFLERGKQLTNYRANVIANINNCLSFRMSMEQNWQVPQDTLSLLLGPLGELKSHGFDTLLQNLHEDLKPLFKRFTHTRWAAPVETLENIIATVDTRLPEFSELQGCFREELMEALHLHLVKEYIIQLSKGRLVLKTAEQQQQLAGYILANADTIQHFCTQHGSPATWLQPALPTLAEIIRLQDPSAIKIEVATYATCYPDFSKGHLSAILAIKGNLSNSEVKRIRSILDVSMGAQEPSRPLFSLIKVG
UniProt Q9ULW0, whole entry, looked up: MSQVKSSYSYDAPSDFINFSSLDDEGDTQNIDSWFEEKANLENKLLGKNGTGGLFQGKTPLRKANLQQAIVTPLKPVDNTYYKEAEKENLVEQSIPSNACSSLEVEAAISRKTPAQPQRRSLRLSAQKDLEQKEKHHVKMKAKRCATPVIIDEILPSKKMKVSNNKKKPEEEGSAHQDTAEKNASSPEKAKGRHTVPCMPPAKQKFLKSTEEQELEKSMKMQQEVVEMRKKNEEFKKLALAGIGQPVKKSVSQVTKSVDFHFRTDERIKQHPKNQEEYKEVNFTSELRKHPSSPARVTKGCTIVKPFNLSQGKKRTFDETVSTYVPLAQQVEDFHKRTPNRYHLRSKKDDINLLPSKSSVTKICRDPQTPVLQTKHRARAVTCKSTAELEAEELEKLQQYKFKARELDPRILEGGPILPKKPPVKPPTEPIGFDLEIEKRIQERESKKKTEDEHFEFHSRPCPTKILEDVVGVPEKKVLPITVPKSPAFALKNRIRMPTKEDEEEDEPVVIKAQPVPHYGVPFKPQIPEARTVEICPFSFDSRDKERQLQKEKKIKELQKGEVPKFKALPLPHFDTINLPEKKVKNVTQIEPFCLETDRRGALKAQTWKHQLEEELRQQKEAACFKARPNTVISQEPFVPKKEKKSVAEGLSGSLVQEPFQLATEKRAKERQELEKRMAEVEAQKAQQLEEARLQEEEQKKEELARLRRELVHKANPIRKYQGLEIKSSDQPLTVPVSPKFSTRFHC
UniProt O00220, whole entry, looked up: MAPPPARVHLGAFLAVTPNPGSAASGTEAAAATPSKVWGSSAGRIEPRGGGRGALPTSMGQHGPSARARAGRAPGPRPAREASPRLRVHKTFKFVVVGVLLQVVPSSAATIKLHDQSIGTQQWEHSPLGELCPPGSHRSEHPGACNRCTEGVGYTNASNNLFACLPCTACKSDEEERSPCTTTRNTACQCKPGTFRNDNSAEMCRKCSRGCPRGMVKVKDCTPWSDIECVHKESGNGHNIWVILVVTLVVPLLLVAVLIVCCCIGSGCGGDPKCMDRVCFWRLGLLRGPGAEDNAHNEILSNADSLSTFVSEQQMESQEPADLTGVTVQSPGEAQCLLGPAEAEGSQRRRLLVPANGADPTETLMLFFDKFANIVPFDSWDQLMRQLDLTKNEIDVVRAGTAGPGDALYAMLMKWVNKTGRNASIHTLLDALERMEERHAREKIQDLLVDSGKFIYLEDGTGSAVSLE
UniProt P82094: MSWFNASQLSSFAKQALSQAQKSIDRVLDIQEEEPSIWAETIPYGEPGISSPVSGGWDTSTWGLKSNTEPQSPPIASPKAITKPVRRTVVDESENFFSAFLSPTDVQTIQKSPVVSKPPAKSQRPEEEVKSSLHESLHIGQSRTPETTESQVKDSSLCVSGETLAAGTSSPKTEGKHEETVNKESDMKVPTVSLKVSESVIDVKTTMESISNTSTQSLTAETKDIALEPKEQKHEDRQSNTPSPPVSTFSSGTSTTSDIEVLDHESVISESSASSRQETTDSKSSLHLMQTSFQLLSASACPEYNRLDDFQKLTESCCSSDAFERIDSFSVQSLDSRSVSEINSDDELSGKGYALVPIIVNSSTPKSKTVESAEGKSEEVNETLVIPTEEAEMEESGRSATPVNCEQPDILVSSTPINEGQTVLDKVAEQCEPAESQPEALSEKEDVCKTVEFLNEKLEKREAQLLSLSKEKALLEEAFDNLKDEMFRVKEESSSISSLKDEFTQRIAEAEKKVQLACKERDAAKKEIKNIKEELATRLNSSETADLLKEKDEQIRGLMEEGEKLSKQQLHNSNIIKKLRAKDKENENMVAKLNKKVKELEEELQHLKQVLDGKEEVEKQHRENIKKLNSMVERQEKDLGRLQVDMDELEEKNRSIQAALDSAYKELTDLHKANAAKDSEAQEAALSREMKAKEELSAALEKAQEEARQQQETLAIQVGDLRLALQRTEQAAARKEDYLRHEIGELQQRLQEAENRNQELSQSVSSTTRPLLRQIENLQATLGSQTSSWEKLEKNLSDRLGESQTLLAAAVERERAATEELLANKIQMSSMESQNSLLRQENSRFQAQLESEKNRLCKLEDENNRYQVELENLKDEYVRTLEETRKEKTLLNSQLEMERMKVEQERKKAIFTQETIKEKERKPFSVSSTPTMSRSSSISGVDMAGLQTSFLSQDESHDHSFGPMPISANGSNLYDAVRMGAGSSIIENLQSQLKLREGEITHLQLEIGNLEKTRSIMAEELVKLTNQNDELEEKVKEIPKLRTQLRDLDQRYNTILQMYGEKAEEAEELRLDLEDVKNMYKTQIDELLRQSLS
UniProt P42166: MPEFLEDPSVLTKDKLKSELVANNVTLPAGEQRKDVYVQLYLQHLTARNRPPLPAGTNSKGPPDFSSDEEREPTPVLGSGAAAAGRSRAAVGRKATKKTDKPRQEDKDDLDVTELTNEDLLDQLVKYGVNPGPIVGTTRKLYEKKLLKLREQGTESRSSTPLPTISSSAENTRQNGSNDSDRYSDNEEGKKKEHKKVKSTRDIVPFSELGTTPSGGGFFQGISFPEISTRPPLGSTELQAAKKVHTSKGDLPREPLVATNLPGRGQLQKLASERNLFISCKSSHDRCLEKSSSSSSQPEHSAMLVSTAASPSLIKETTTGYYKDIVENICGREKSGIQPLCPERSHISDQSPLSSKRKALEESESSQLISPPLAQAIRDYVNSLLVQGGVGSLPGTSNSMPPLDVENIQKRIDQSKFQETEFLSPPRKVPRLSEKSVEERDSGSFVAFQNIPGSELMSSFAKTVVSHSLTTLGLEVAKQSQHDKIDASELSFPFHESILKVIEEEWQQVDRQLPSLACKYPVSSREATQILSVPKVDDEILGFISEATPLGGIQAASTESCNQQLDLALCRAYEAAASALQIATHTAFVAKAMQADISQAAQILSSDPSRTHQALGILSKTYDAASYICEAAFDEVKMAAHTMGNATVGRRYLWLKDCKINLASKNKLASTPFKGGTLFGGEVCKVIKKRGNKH

Experiments:
Experiment in all cases: log2 fold change, soluble protein after heating vs DMSO (PISA); higher = thermal stabilisation; K562 lysate, 10 uM; active = over 0.2 and 3.5 SD of the protein, either way, in both replicates (recomputed)
alvocidib = compound: CN1CC[C@H](c2c(O)cc(O)c3c(=O)cc(-c4ccccc4Cl)oc23)[C@H](O)C1 [alvocidib]
In short: (§1)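 K562 pellets were dounce-homogenised in PBS pH 7.4 with 1 mM MgCl2, and the crude extract at 1 mg/mL protein was treated with 10 μM compound for 30 min. Aliquots were heated for 3 min across 48°C-58°C, pooled, and brought to 0.5% NP-40 at 4°C; soluble protein was the supernatant after 21,000xg for 90 min. Soluble protein was quantified by TMTpro 16plex LC-MS/MS with channel sums equalised, and reported as log2 fold change in thermal stability against DMSO controls, with values from duplicates.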

Tubastatin A = compound: CN1CCc2c(c3ccccc3n2Cc2ccc(C(=O)NO)cc2)C1 [Tubastatin A]
In short: as §1

[1] = compound: CNC(=O)C1=CC=CC=C1NC2=NC(=NC=C2Cl)NC3=C(C=C(C=C3)N4CCOCC4)OC
In short: as §1

defactinib = compound: CNC(=O)c1ccc(Nc2ncc(C(F)(F)F)c(NCc3nccnc3N(C)S(C)(=O)=O)n2)cc1 [defactinib]
In short: as §1

[2] = compound: CNc1nc(-c2ccc3c(N)n[nH]c3c2)cc(N2C[C@@H](C(=O)NC3CCCCC3)CC[C@H]2C)n1
In short: as §1

encorafenib = compound: COC(=O)N[C@@H](C)CNc1nccc(-c2cn(C(C)C)nc2-c2cc(Cl)cc(NS(C)(=O)=O)c2F)n1 [encorafenib]
In short: as §1

[3] = compound: COC(=O)[C@H](CCSC)NC(=O)C1=C(C=C(C=C1)NC[C@H](CS)N)C2=CC=CC=C2
In short: as §1

alisertib = compound: COc1cc(Nc2ncc3c(n2)-c2ccc(Cl)cc2C(c2c(F)cccc2OC)=NC3)ccc1C(=O)O [alisertib]
In short: as §1

[4] = compound: COc1cc2nc(-c3cc(F)ccc3O)nc(N[C@@H]3CNC[C@H]3C(C)(C)O)c2cc1OC
In short: as §1

gefitinib = compound: COc1cc2ncnc(Nc3ccc(F)c(Cl)c3)c2cc1OCCCN1CCOCC1 [gefitinib]
In short: as §1

Measured: log2 fold change

TOMM22 (UniProt Q9NS69)
inactive: alvocidib 0.002 | Tubastatin A 0.046 | [1] 0.005 | defactinib -0.01 | [2] 0.019 | encorafenib 0.024 | [3] -0.041 | alisertib -0.016 | [4] -0.025 | gefitinib -0.033

TMEM263 (UniProt Q8WUH6)
inactive: alvocidib 0.013 | Tubastatin A 0.266 | [1] 0.116 | defactinib 0.213 | [2] -0.013 | encorafenib 0.285 | [3] 0.154 | alisertib 0.202 | [4] 0.398 | gefitinib 0.222

TP53I3 (UniProt Q53FA7)
inactive: alvocidib 0.01 | Tubastatin A -0.008 | [1] -0.014 | defactinib 0.024 | [2] 0.005 | encorafenib 0.031 | [3] -0.031 | alisertib -0.054 | [4] 0.017 | gefitinib 0.019

TPK1 (UniProt Q9H3S4)
inactive: alvocidib -0.061 | Tubastatin A 0.228 | [1] 0.001 | defactinib -0.058 | [2] 0.003 | encorafenib 0.118 | [3] -0.05 | alisertib 0.063 | [4] 0.033 | gefitinib 0.002

TOMM40 (UniProt O96008)
inactive: alvocidib -0.03 | Tubastatin A 0.045 | [1] -0.012 | defactinib 0.011 | [2] 0.022 | encorafenib 0.011 | [3] -0.01 | alisertib -0.012 | [4] 0.025 | gefitinib 0

2 consecutive entries from above, quoted:
TOMM22 (UniProt Q9NS69)
inactive: alvocidib 0.002 | Tubastatin A 0.046 | [1] 0.005 | defactinib -0.01 | [2] 0.019 | encorafenib 0.024 | [3] -0.041 | alisertib -0.016 | [4] -0.025 | gefitinib -0.033

TMEM263 (UniProt Q8WUH6)
inactive: alvocidib 0.013 | Tubastatin A 0.266 | [1] 0.116 | defactinib 0.213 | [2] -0.013 | encorafenib 0.285 | [3] 0.154 | alisertib 0.202 | [4] 0.398 | gefitinib 0.222

Further results:

TMX1 (UniProt Q9H3N1)
inactive: alvocidib 0.002 | Tubastatin A 0.01 | [1] -0.018 | defactinib 0.02 | [2] -0.001 | encorafenib 0.032 | [3] -0.022 | alisertib 0.017 | [4] -0.005 | gefitinib -0.005

TRADD (UniProt Q15628)
inactive: alvocidib -0.029 | Tubastatin A -0.066 | [1] 0.021 | defactinib -0.092 | [2] 0.021 | encorafenib -0.012 | [3] -0.241 | alisertib 0.009 | [4] 0.004 | gefitinib -0.03

TOMM7 (UniProt Q9P0U1)
inactive: alvocidib -0.031 | Tubastatin A 0.128 | [1] 0.073 | defactinib 0.024 | [2] 0.046 | encorafenib 0.019 | [3] -0.016 | alisertib -0.004 | [4] 0.019 | gefitinib -0.119

TMSB10 (UniProt P63313)
inactive: alvocidib 0.242 | Tubastatin A 0.122 | [1] 0.02 | defactinib 0.042 | [2] 0.067 | encorafenib -0.038 | [3] -0.02 | alisertib -0.012 | [4] -0.104 | gefitinib -0.189

TOE1 (UniProt Q96GM8)
inactive: alvocidib -0.01 | Tubastatin A -0.136 | [1] 0.027 | defactinib 0.019 | [2] -0.044 | encorafenib -0.034 | [3] 0.165 | alisertib -0.041 | [4] -0.011 | gefitinib -0.047

TMEM69 (UniProt Q5SWH9)
inactive: alvocidib -0.052 | Tubastatin A -0.056 | [1] 0.051 | defactinib 0.083 | [2] 0.048 | encorafenib -0.03 | [3] 0.208 | alisertib -0.028 | [4] 0 | gefitinib 0.054

TRA2B (UniProt P62995)
inactive: alvocidib 0 | Tubastatin A 0.001 | [1] 0.02 | defactinib -0.067 | [2] 0.038 | encorafenib 0.056 | [3] 0.055 | alisertib -0.007 | [4] -0.001 | gefitinib 0.013

TOMM5 (UniProt Q8N4H5)
inactive: alvocidib 0.272 | Tubastatin A -0.124 | [1] -0.024 | defactinib 0.227 | [2] 0.048 | encorafenib -0.013 | [3] -0.036 | alisertib -0.11 | [4] -0.108 | gefitinib -0.184

TOR1AIP2 (UniProt Q9H496)
inactive: alvocidib 0.02 | Tubastatin A -0.09 | [1] 0.119 | defactinib -0.041 | [2] -0.359 | encorafenib 0.041 | [3] 0.071 | alisertib 0.019 | [4] 0.155 | gefitinib -0.015

TMLHE isoform 8 (UniProt Q9NVH6)
inactive: alvocidib -0.005 | Tubastatin A 0.113 | [1] 0.036 | defactinib 0.032 | [2] 0.013 | encorafenib 0.012 | [3] -0.042 | alisertib -0.033 | [4] 0.03 | gefitinib 0.039

TMOD1 (UniProt P28289)
inactive: alvocidib 0.017 | Tubastatin A -0.081 | [1] 0.042 | defactinib 0.046 | [2] -0.009 | encorafenib -0.004 | [3] -0.002 | alisertib 0.014 | [4] 0.016 | gefitinib -0.008

TOMM40L (UniProt Q969M1)
inactive: alvocidib -0.041 | Tubastatin A 0.107 | [1] -0.007 | defactinib -0.009 | [2] 0.139 | encorafenib -0.008 | [3] 0.07 | alisertib 0 | [4] 0.024 | gefitinib 0.035

TPRKB (UniProt Q9Y3C4)
inactive: alvocidib -0.024 | Tubastatin A 0.03 | [1] -0.043 | defactinib 0.07 | [2] 0.004 | encorafenib 0.055 | [3] 0.057 | alisertib -0.003 | [4] 0.024 | gefitinib 0.025

TOP2A isoform 4 (UniProt P11388)
inactive: alvocidib -0.045 | Tubastatin A -0.043 | [1] 0.049 | defactinib 0.006 | [2] 0.014 | encorafenib 0.02 | [3] 0.048 | alisertib 0.039 | [4] -0.014 | gefitinib -0.022

TPMT (UniProt P51580)
inactive: alvocidib 0.008 | Tubastatin A -0.032 | [1] -0.022 | defactinib 0 | [2] -0.111 | encorafenib -0.016 | [3] 0 | alisertib -0.031 | [4] -0.024 | gefitinib 0.005

TMTC3 (UniProt Q6ZXV5)
inactive: alvocidib 0.011 | Tubastatin A -0.011 | [1] 0.009 | defactinib 0.03 | [2] 0.027 | encorafenib -0.025 | [3] 0.006 | alisertib -0.081 | [4] -0.011 | gefitinib -0.027

TNFAIP2 (UniProt Q03169)
inactive: alvocidib -0.034 | Tubastatin A 0.166 | [1] -0.005 | defactinib -0.014 | [2] 0.176 | encorafenib -0.094 | [3] 0.118 | alisertib -0.031 | [4] 0.174 | gefitinib 0.053

TPX2 (UniProt Q9ULW0)
active: [3] -0.215
inactive: alvocidib -0.002 | Tubastatin A -0.129 | [1] 0.014 | defactinib 0.01 | [2] 0.045 | encorafenib 0.041 | alisertib 0.043 | [4] -0.027 | gefitinib 0.012

TNFRSF10A (UniProt O00220)
inactive: alvocidib 0.024 | Tubastatin A 0.04 | [1] -0.052 | defactinib -0.003 | [2] -0.058 | encorafenib 0 | [3] -0.029 | alisertib -0.024 | [4] -0.007 | gefitinib 0.105

TMEM245 (UniProt Q9H330)
inactive: alvocidib -0.056 | Tubastatin A -0.033 | [1] -0.03 | defactinib 0.054 | [2] -0.1 | encorafenib 0.044 | [3] -0.003 | alisertib -0.044 | [4] -0.059 | gefitinib 0.083

TMEM259 (UniProt Q4ZIN3)
inactive: alvocidib 0.007 | Tubastatin A -0.001 | [1] 0.018 | defactinib 0.051 | [2] 0.055 | encorafenib 0.088 | [3] -0.021 | alisertib -0.023 | [4] 0.029 | gefitinib -0.017

TOMM20 (UniProt Q15388)
inactive: alvocidib 0.049 | Tubastatin A 0.052 | [1] 0.001 | defactinib 0.011 | [2] 0 | encorafenib -0.033 | [3] 0.082 | alisertib -0.016 | [4] -0.081 | gefitinib 0.047

TMF1 isoform 2 (UniProt P82094)
inactive: alvocidib -0.022 | Tubastatin A 0.032 | [1] 0.021 | defactinib 0.033 | [2] 0.019 | encorafenib 0.079 | [3] -0.062 | alisertib 0.024 | [4] 0.026 | gefitinib 0.022

TMPO (UniProt P42166)
inactive: alvocidib -0.196 | Tubastatin A -0.145 | [1] 0.002 | defactinib 0.028 | [2] -0.003 | encorafenib 0.011 | [3] 0.174 | alisertib -0.024 | [4] 0.012 | gefitinib 0.011

TNIP1 (UniProt Q15025)
inactive: alvocidib -0.009 | Tubastatin A -0.017 | [1] -0.002 | defactinib 0.042 | [2] 0.009 | encorafenib 0.018 | [3] -0.038 | alisertib 0 | [4] -0.239 | gefitinib 0.045
